Laboratory results: PubChem BioAssay AID652248 (Drosophila RNAi Screening Center, 2013)
Purpose: 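Genes that govern switching among distinct shape types in fly blood cells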 (primary screen). Cells: cultured Drosophila hemocytes. Reagents: long dsRNA against Drosophila genes. Measurement: 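Automated microscopy of stained actin, tubulin and nuclei; single-cell shape measures assigned to five reference shape types, giving a score per dsRNA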. Scale: elongated score: higher = more elongated bipolar cells; normal round score: higher = more normal rounded cells; teardrop score: higher = more small teardrop-shaped cells. Hit rule: 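a gene counts as active when its knock-down clearly increases the elongated score; a low similarity score was then used to rank the actives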.
The whole screen tested 863 reagents; shown is a random part of them. 32 of all reagents (3.7%) were called active. 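Calls also used reproducibility and a similarity ranking whose scores are not deposited; many active genes show only modest elongated scores.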 Not given: the amount of reagent, the time to read-out.

| gene | dsRNA | elongated score, rep 1 | elongated score, rep 2 | normal round score, rep 1 | teardrop score, rep 1 | call |
| --- | --- | --- | --- | --- | --- | --- |
| rdgC | DRSC11387 | -0.43 | – | -2.49 | -0.13 | inactive |
| NiPp1 | DRSC07307 | 0.72 | – | 0.19 | -0.48 | inactive |
| CG1344 | DRSC04837 | 2.3 | – | -1.41 | -0.11 | inactive |
| Mps1 | DRSC16273 | -0.53 | – | 0.37 | -0.4 | inactive |
| Wsck | DRSC13682 | 0.76 | – | -3.61 | 1.07 | inactive |
| Wsck | DRSC28781 | 2.89 | – | -4.91 | 4.54 | inactive |
| for | DRSC00195 | -0.53 | – | 0.98 | -0.87 | inactive |
| for | DRSC00818 | -0.53 | – | 0.1 | 0.01 | inactive |
| for | DRSC25103 | -0.53 | – | 0.66 | -1 | inactive |
| CanA1 | DRSC16600 | -0.06 | – | 0.35 | -0.44 | inactive |
| CanA1 | DRSC25868 | 3.64 | – | -1.57 | 0.59 | inactive |
| CG17124 | DRSC02580 | -0.53 | – | 0.47 | -0.31 | inactive |
| CG17124 | DRSC29139 | 2.51 | – | -1.96 | 1.08 | inactive |
| rdgA | DRSC18827 | -0.53 | – | -0.33 | 1.05 | inactive |
| rdgA | DRSC27192 | -0.53 | – | -1.65 | 0.62 | inactive |
| Dsor1 | DRSC18462 | 1.67 | – | 1.35 | 0.49 | inactive |
| Dsor1 | DRSC27547 | 3.02 | – | 3.68 | 0.6 | inactive |
| PEK | DRSC12361 | -0.03 | -0.26 | -1.56 | 2.04 | inactive |
| Ak1 | DRSC10248 | -0.53 | – | -0.11 | 0.72 | inactive |
| Ak1 | DRSC29837 | 1.54 | – | -0.5 | -0.46 | inactive |
| aurB | DRSC03548 | 1.22 | – | -8.92 | 6.53 | inactive |
| aurB | DRSC23324 | 0.82 | – | -8.61 | 6.92 | inactive |
| mei-41 | DRSC20350 | -0.53 | – | -0.11 | -0.23 | inactive |
| Pp2B-14D | DRSC20270 | 5.67 | – | -2.33 | -1.14 | inactive |
| Pp2B-14D | DRSC23315 | -0.53 | – | -2.46 | 3.8 | inactive |
| CG44153 | DRSC02228 | -0.35 | – | -0.23 | 0.01 | inactive |
| CG44153 | DRSC02229 | -0.53 | – | 1 | -0.85 | inactive |
| CG44153 | DRSC02902 | -0.53 | – | -0.26 | 0.67 | inactive |
| CG44153 | DRSC02903 | 0 | – | -0.37 | 0.26 | inactive |

Laid out differently: entries from further up.
gene	dsRNA	elongated score, rep 1	elongated score, rep 2	normal round score, rep 1	teardrop score, rep 1	call
Pp2B-14D	DRSC20270	5.67		-2.33	-1.14	inactive
Pp2B-14D	DRSC23315	-0.53		-2.46	3.8	inactive
CG44153	DRSC02228	-0.35		-0.23	0.01	inactive
CG44153	DRSC02229	-0.53		1	-0.85	inactive
CG44153	DRSC02902	-0.53		-0.26	0.67	inactive

Next entries follow:
| gene | dsRNA | elongated score, rep 1 | elongated score, rep 2 | normal round score, rep 1 | teardrop score, rep 1 | call |
| --- | --- | --- | --- | --- | --- | --- |
| Myt1 | DRSC11228 | -0.53 | – | -0.59 | 1.42 | active |
| Myt1 | DRSC30071 | 4.4 | – | -1.74 | -0.24 | active |
| pyd | DRSC14387 | -0.03 | – | -0.92 | 1.17 | inactive |
| pyd | DRSC14445 | -0.53 | – | 0.73 | -0.46 | inactive |
| pyd | DRSC14509 | -0.53 | – | 1.01 | -0.87 | inactive |
| pyd | DRSC16547 | 0.38 | – | -1.23 | 1.62 | inactive |
| pyd | DRSC17041 | 0.12 | – | 0.24 | -0.83 | inactive |
| pyd | DRSC26890 | -0.53 | – | 0.11 | -0.37 | inactive |
| PpD6 | DRSC00774 | -0.21 | – | -0.12 | 0.65 | inactive |
| PpD6 | DRSC23331 | 0.58 | – | -0.98 | 1.55 | inactive |
| aux | DRSC12161 | -0.03 | – | -1.45 | 1.42 | inactive |
| aux | DRSC28178 | 0.28 | – | -1.14 | 0.71 | inactive |
| Sbf | DRSC16852 | 0.39 | – | -1.2 | 1.63 | inactive |
| Sbf | DRSC27418 | 0.36 | – | -0.81 | 1.1 | inactive |
| dop | DRSC10655 | -0.32 | – | 0.38 | -0.26 | active |
| dop | DRSC29525 | 6.42 | – | -3.65 | 0.6 | active |
| Takl2 | DRSC15650 | -0.53 | – | 0.91 | -0.72 | inactive |
| Alp2 | DRSC04354 | 0.42 | – | -1.3 | 1.39 | inactive |
| Alp2 | DRSC26474 | -0.27 | – | -0.8 | 1.59 | inactive |
| Pak | DRSC12602 | -0.53 | – | -0.45 | 0.84 | inactive |
| Pak | DRSC23302 | -0.25 | – | 0.41 | -0.64 | inactive |
| Nak | DRSC03379 | -0.01 | – | -0.05 | -0.34 | inactive |
| Nak | DRSC27565 | 2.88 | – | -1.07 | 0.56 | inactive |
| Dyrk2 | DRSC03610 | 1.44 | – | 0.3 | -0.95 | inactive |
| Dyrk2 | DRSC29029 | -0.42 | – | -0.68 | 1.28 | inactive |
| ksr | DRSC12379 | 0.88 | – | -0.45 | 0.21 | inactive |
| Pmvk | DRSC02032 | -0.53 | – | 0.08 | 0.46 | inactive |
| Mkp3 | DRSC10084 | -0.24 | – | -0.25 | -0.32 | inactive |
| Mkp3 | DRSC10085 | -0.53 | – | -0.02 | -0.2 | inactive |
| Pp2C1 | DRSC23287 | -0.08 | – | -0.31 | -0.16 | inactive |
| Pp2C1 | DRSC28091 | 0.04 | – | -1.46 | 2.07 | inactive |
| CG15528 | DRSC15065 | 0.35 | – | -0.03 | -0.4 | inactive |
| CG3632 | DRSC19871 | 1.68 | – | -2.73 | 3.07 | inactive |
| Pp4-19C | DRSC20559 | -0.53 | – | -0.93 | 0.79 | inactive |
| Pp4-19C | DRSC21251 | -0.53 | – | 0 | 0.57 | inactive |
| Pp4-19C | DRSC23319 | 4.31 | – | -2.37 | 1.35 | inactive |
| Pp4-19C | DRSC26053 | 0.6 | – | -2.56 | 3.25 | inactive |
| TbCMF46 | DRSC02221 | -0.53 | – | 0.69 | -0.72 | inactive |
| mop | DRSC11065 | -0.26 | – | 0.42 | -0.24 | inactive |
| mop | DRSC28489 | -0.03 | – | -1.45 | 2.08 | inactive |
